Paper PMC7155212 (Journal of Enzyme Inhibition and Medicinal Chemistry, 2020)

By UniProt entry, the sequences of proteins in these tests, tags left out. Residues count along the entry.
UniProt O42275, 24-633 limits assumed: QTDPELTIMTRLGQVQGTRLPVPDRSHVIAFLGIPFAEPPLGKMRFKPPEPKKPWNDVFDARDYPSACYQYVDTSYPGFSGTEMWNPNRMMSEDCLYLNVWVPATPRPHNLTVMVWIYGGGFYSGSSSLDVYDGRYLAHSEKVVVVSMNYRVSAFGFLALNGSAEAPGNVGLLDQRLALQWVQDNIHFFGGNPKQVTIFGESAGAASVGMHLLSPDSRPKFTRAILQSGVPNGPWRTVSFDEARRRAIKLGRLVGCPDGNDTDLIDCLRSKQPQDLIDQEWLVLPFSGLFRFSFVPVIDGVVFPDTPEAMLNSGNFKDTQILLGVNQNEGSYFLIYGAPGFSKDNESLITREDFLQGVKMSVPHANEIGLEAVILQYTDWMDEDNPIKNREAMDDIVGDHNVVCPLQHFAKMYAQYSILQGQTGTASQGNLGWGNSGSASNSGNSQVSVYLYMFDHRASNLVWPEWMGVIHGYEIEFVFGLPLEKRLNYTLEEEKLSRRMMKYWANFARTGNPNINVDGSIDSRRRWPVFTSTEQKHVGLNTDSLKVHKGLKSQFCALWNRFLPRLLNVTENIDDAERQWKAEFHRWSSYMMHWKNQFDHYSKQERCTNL
UniProt P81908, whole entry: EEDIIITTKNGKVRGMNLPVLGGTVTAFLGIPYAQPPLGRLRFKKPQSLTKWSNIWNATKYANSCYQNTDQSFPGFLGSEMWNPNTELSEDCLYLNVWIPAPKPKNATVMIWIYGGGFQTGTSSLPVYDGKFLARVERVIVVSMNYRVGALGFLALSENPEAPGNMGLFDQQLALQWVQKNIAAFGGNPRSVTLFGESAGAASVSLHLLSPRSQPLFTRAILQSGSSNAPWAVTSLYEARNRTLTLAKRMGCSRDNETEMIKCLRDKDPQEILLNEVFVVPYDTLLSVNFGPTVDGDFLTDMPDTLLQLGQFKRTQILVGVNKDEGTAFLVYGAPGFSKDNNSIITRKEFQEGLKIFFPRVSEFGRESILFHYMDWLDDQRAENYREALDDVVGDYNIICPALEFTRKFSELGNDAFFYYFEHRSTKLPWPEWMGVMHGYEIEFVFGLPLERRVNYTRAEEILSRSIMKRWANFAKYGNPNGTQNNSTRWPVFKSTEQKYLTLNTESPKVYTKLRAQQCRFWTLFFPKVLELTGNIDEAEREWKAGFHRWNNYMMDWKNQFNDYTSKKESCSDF

Experiments:
AChE from electric eel = AChE from electric eel (Electrophorus electricus, UniProt O42275); details: read-out: IC50 value AChE inhibitory activity, Ellman method, mean ± SD (n = 3)
BChE from equine serum = BChE from equine serum (Equus caballus, UniProt P81908); details: read-out: IC50 value BuChE inhibitory activity, Ellman method, mean ± SD (n = 3)

| SMILES | IC50 (AChE from electric eel) | IC50 (BChE from equine serum) |
| --- | --- | --- |
| COc1ccc(C2C(=O)Oc3c2ccc(O)c3O)cc1 (centres unmarked) [Compound 5, 6,7-Dihydroxy-3–(4′-methoxyphenyl)-benzofuranone] | < 1 µM and 480 nM | – |
| COc1ccc(C2C(=O)Oc3ccc(O)cc32)cc1 (centres unmarked) [Compound 2, 5-Hydroxyl-3–(4′-methoxyphenyl)-benzofuranone] | – | < 50 µM and 24.9 µM |

Some entries of the source have several records that differ or are many. This is not the full list of results. An entry can have further records. The records of an entry differ, and nothing given here explains why; they may come from other doses, times, organisms or constructs than stated.
